# Patent US5760188A (Martin R&F Inc., priority 1996, dated 1998)
# Some peptides are written in HELM: one residue between dots, names in brackets for other building blocks, links after the first $.
# Test: general procedure: Boc solid-phase peptide synthesis
# Settings: whole synthesis, analytical HPLC on u Bondapak C18 column, UV and fluorescence detection
substance,measurement,value
PEPTIDE1{[FTC].E.L.Y.E.N.K.P.R.R.P.Y.I.L}$$$$V2.0,final HPLC purity,approximately 99%
